Data taken from patent publication US20180275120.
Construct, isoform or probe ends are uncertain for at least one entry. Whether high values mean tight binding is not given here for every scale. Protein sequences can lack the tags named with them.

Target: T1, Carcinoembryonic antigen (CEA) (UniProt P06731)
T1 sequence (looked up, limits assumed): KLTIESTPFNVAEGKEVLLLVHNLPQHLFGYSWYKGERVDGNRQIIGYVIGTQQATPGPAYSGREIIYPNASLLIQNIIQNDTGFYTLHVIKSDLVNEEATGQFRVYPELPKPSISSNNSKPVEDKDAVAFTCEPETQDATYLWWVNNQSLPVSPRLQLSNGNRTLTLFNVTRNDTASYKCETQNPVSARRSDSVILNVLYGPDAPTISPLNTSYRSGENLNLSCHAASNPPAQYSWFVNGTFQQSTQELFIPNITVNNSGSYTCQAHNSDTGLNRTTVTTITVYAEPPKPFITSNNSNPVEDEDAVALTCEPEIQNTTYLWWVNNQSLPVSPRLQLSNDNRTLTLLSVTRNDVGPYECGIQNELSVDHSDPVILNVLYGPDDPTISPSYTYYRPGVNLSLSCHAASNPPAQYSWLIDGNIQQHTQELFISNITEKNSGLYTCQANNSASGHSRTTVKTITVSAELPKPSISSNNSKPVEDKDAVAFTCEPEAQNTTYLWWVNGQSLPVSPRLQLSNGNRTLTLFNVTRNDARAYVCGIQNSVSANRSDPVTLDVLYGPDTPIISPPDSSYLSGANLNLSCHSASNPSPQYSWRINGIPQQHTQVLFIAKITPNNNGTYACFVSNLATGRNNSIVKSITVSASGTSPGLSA
Assay: binding assay
Details: ODI chemiluminescence; CL intensity about 4-fold higher without CEA than with 80 ng/ml CEA; 1 uM CH-2, 740 nM hemin, 1 h room temperature; indirect; purified native protein; protein details: Lee Biosolutions CEA antigen; single-stranded DNA

ATACCAGCTTATTCAATTAAAAATAAAGGGTAGGGCGGGTTGGGTAAAT [CH-2 (CEA aptamer-A5 linker-hemin aptamer)]
binding signal: 4 fold
